# Measured values reported in patent US20130059876A1, “LIQUID NASAL SPRAY CONTAINING LOW-DOSE NALTREXONE” (L Molteni & C Dei Fratelli Alitti Societa Di Esercizio S.p.A, priority 2010, published 2013).
# Tested on: patients
# Conditions: patients (total number 80) before treatment with Naltrexone
smiles,measurement,value
CN1CC[C@]23c4c5ccc(O)c4O[C@H]2[C@@H](O)C=C[C@H]3[C@H]1C5 [morphine],Incidence of adverse effects from morphine: Urinary retention,40%
